## Screening data

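Genome-wide siRNA knockdown in TC32 Ewing sarcoma cells, comparing luciferase light from an NR0B1-promoter reporter with a CMV-promoter reporter 48 hours after transfection. Each siRNA was applied at 20 nM. A z-score of the log NR0B1-over-CMV signal, less the median of siRNAs with the same seed; more negative means a stronger specific loss of the NR0B1 reporter.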

This is part of the screen; most of the strongest results are not listed here. Sequences are the guide (antisense) strand, without overhang.

Sequence	gene	seed-corrected z-score
UGUCCAUUCGUAUUCGUUC	MXI1	-0.3364
UGUUCUAAGCUCUUUAUCC	ARHGAP24	0.2206
ACAGGUAGUAUUGCAGUGG	TSPYL1	0.2065
UUCAGUGCAACCAAGAAAU	NRARP	-1.721
UUUCCAAACUUGGUUGUCC	FCRLA	0.02803
UGAGGUGCUAGUGCUGAUG	ZNF213	-1.507
UGGGUCAUAAGAGAUGGUC	CA5B	-0.3041
UUAGUUGGAUACCCUGUCG	WASL	-0.4322
UGACUCAUAGCGGACAUUC	CEACAM7	-0.03313
UUUAGGUACAGUCUUCUUG	NOLC1	0.8984
AUCGACAUCAGAUUGAGGC	VWA3B	0.469
UUCAUUUCCCAUAACAUCC	PPM1A	-0.3212
UCUGUUUUGAGAAACACUA	FHIT	0.3442
UAUGGUUUAAUGUAGUGAU	BST2	1.5
AUAGCUUCCACUGUGCCCA	LOC642669	0.1257
UCCAACAUUCUGAUCAUCC	LSP1P3	0.4462
UCAGGUAACUGAACCAGGU	CANT1	0.4607
UCUUGGGACAGAACUAUUC	GMNN	0.9621
UAAGUCGAAUCAGCUCUAC	RPGRIP1	0.6196
UCACUACCUACUUGAGUUC	DIXDC1	0.3744
AGCGUUUAAAGGAUUUGCC	ZNF735	-0.1254
UUUUUGUAGUCGACGUUGC	MYLPF	0.4105
UUGUAAAGGAUUAAGGUUG	SCFD1	1.191
ACUCGAUAAACGACAAUGC	AFF3	0.1891
GAUGCGCUCAAAGAUGUCA	HIST1H2BO	0.1997
UCAUACUUCAGCACGAUGC	NSUN2	-0.1932
UCGGAUUUAAGUGCACAGG	FAM109B	0.3978
UAAUGUUCCCAUUAUCUGA	LAMTOR5	1.1
GUCACAUAUAUGAUGGGCC	KRTAP12-3	-0.1132
UGCUCUUUAACCACACUUC	TPCN2	-1.103
UCAGAUACAUGUUUCAGGG	CAP1	0.5355
AACUUUCUAUUGAACAUGG	OSCP1	-0.2908
UACUUGGACAGGAUAGAGC	SART1	-1.078
AAAGAGCCCAGGAUAAACC	SLCO3A1	0.7192
UCAGUGAUCCAUCAUACAC	MBLAC2	0.1803
AUAGGGUUCAGCACAGGUG	OR51T1	-0.5649
UGGCAGGUAACGGCGAAUG	POLR2F	-1.135
UCUCUGAUGAGUACUGAGG	ZNF510	-0.02369
AAUCUCAUAUUUAAAGCCC	GRID1	-1.066
UAGCUUCAAAUUGCAGAUC	GSG1L2	-1.298
ACAUAGUCGGGUUCUGUCG	PAX2	-0.7282
UCAUUUUUGUGGACUAUCU	TULP3	2.132
AAUGAAAUACUGGAUACCC	CYTH4	0.29
ACAGUGUUCAGGUAACACC	LTBP2	-0.1849
UACACGAACAUUGUACUCC	CSNK2A2	0.2369
UCUAGAUACAUCUUCCCAC	C10orf82	0.4214
AUAGGUAUCAAUCUCCUCA	EDC3	0.3014
UCAGUAAACAGAAGCGAGG	PDZD3	0.8093
UCAGGACACGCUUCAUUCC	KSR1	0.7219
UUGUGGACAGCGAGAGUCC	OSR1	-0.7252
UUACUGAAGAGGGACGGUA	CASP7	0.4335
UACGCUUGUAUCACAAGUC	RAD23B	0.3757
AAGGGUGAGAUAAUGGUCC	SCNM1	1.71
UCUGUGAUUAUUUUAGCUC	LOC255187	0.8891
UUCGUGUUCGAAAUCCAGC	KIF27	0.7275
UAAUUUGCUGCUGUAGAUC	ATAT1	-0.9305
UGAAUAUGAGGCAUCAUUU	PRORSD1P	0.3495
UGAUGGACCUGGUUUCCUU	PHKG2	-0.6176
UUGAAGGUCACGUUGAGGU	MN1	0.6696
UUUUGGUAAUUGGACAUCC	ZNF684	0.132
UUCCGUAUCCCACUGGAAC	EEF1B2P3	-0.5387
UUAAUGUUGCCGAAGACCG	SLCO2A1	1.046
UUAGUGUACUCUGAAGGCC	SYTL4	0.2416
UCUCGUACCGCCUCCGUUU	SYT5	-1.077
UUUGUUACAGUCGUCCAGG	MAP7D2	-0.5181
UUUCUUCAUACGAUAGAUG	SDC3	-0.001108
ACAUCUAUGAGGGUGGUGG	GATSL3	-0.3496
UACCAGUAUUGUCCUAUCC	CCDC181	0.03676
UGUUGAAACAGGUAUCACA	RSPO3	0.2514

Repeated from the top, 4 entries:

UGUCCAUUCGUAUUCGUUC against MXI1 gave seed-corrected z-score -0.3364.
UGUUCUAAGCUCUUUAUCC against ARHGAP24 gave seed-corrected z-score 0.2206.
ACAGGUAGUAUUGCAGUGG against TSPYL1 gave seed-corrected z-score 0.2065.
UUCAGUGCAACCAAGAAAU against NRARP gave seed-corrected z-score -1.721.

The results are deposited in PubChem (AID1159506; NCATS, 2015).